# Measurements reported in the supplement of paper PMC3334620.
# The full ranking holds about 33,000 sequences; the median of “E-score (-0.5 to 0.5)” is about -0.0014, and the highest 2% start at about 0.25. Some of the results follow.
# Target: T1, Cad1 (UniProt P24813)
# T1 sequence: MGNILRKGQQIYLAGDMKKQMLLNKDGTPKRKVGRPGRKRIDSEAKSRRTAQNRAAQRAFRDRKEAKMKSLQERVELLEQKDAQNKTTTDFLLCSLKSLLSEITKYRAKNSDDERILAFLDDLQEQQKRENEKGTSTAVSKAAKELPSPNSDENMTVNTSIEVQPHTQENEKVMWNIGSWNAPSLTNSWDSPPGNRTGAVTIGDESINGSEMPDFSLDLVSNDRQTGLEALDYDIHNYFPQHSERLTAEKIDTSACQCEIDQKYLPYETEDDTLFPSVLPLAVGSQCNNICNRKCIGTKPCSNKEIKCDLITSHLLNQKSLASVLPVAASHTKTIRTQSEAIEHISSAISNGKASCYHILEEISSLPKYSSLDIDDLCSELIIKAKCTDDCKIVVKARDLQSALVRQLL
# Test: PBM E-score (8-mer binding enrichment) (E-score (-0.5 to 0.5)); higher = stronger / more preferred TF binding
# Details: protein concentration: 100 nM; construct: GST-full length
# In short: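 Detection of bound protein used fluorescent anti-GST, with scans normalised by masliner. The proteins were GST-tagged yeast transcription factors applied at about 100-200 nM to universal all-10-mer Agilent arrays made double-stranded by primer extension. Each ungapped eight-base word, pooled with its reverse complement, was scored with an E-score from the Universal PBM Analysis Suite.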
row,Sequence,PBM E-score
1,GAATTATC,0.207
2,CACAAAAC,0.125
3,CCCCATCC,0.0372
4,TTAGATAA,0.105
5,CGTGCATA,0.0661
6,ATAAGGTG,0.163
7,GACATCGC,0.0879
8,ATGGTCCA,-0.142
9,TCGGACAA,0.225
10,CCCTAGGA,-0.1
11,AGGTACAT,-0.172
12,CTCGTATC,0.131
13,CGGTTTCC,0.121
14,CAACAGTC,0.0156
15,AATCACGA,0.0219
16,ACACCGAT,-0.0734
17,CTCGCGTC,0.0998
18,CAATATAC,0.0244
19,AGTTGACA,0.119
20,ACCGCATA,0.0299
21,CCGGCGTC,0.0817
22,ACTATTCT,0.0403

row,Sequence,PBM E-score
1,CGTGCTTA,0.175
2,GCCATCCC,0.0332
3,CCTACATC,-0.109
4,GCTCATCA,-0.0777
5,ACAGACAC,0.122
6,AGAATTGC,-0.0819
7,CAAGCTGC,-0.00852
8,CCAAGGAC,-0.171
9,CAATAACA,-0.0158
10,AGTGCTAC,-0.178
11,AGAACGCA,0.00375
12,TCGATCAA,0.0767
13,TGAGCAAA,0.143
14,CAAAGCAA,0.129
15,CGAGCGGC,0.0466
16,CGATGCCG,-0.137
17,CCCATCCA,-0.073
18,GCCGGCCA,0.108
19,ACTCAACC,0.194
20,GAGCTAAC,-0.133
21,AGTCAGTC,-0.08
22,AATTCCGG,0.163

# Taken from above:
# PBM E-score with ACAGACAC is entered as 0.122
# PBM E-score with CCCATCCA is entered as -0.073

# Carrying on.

row,Sequence,PBM E-score
1,ACCCCAAT,0.0428
2,ACGAACCC,-0.109
3,CCGAAGAA,0.00754
4,TATACTCA,0.0376
5,AGTCAGTA,0.0711
6,ATAATTTC,0.154
7,GCTCCTCA,-0.296
8,ATAGGAAA,0.141
9,AGTCCTTC,-0.175
10,GCCAAACC,-0.105
11,GTGAGACA,-0.00625
12,ATCCTATC,0.0221
13,AGACAATC,0.148
14,AAAGCTCA,-0.177
15,GAAACCCA,0.0394
16,CTTAACAA,0.0494
17,AGTCCCGG,-0.148
18,AGCTGCGG,0.0147
19,GCGCTATA,0.16
20,CACGTTAA,-0.00912
21,TGAGACCA,0.0764
22,ATCTGTTG,-0.0302

# A second format for some results above:
row | Sequence | PBM E-score
8 | ATAGGAAA | 0.141
9 | AGTCCTTC | -0.175

# Remaining list, next part

row,Sequence,PBM E-score
1,CTGCACGC,0.0791
2,AAGCCTAG,0.0255
3,ACAGATCG,0.048
4,AGTAGAGA,-0.0661
5,CTAGGACC,-0.231
6,CCCGCGTA,0.0387
7,CTCGGTAC,-0.313
8,TACCGGAA,0.145
9,CCCGACAA,0.0776
10,AGTATAAA,0.199
11,CGTCTGTA,0.0482
12,GCGCTCAC,0.209
13,ACAATGGG,-0.0249
14,GAGCGGGC,-0.114
15,AGGATGAA,-0.0458
16,ATGGGCAC,0.104
17,CTTGAGCA,-0.193
18,ACGGCAAT,0.214
19,CATTTGAC,0.0466
20,CCGACGGA,0.0592
